Test results published in patent US6020480A, “Caged NADP and NAD” (The Regents of the University of California, priority 1997, dated 2000).

Experiment: Laser photolysis at 355 nm, released NADP quantified by the G6PD assay
Format: physicochemical

Compound: COc1cc(C(C)OP(=O)(O)O[C@@H]2[C@H](O)[C@@H](COP(=O)(O)OP(=O)([O-])OC[C@H]3O[C@@H]([n+]4cccc(C(N)=O)c4)[C@H](O)[C@@H]3O)O[C@H]2n2cnc3c(N)ncnc32)c([N+](=O)[O-])cc1OC (stereo partly shown) [compound 1, P^2' -[1-(4,5-Dimethoxy-2-nitrophenyl)ethyl]nicotinamide adenine dinucleotide phosphate]
- photorelease of the caged NADP in the irradiated elliptical cylinder (converted to NADP) (55 mJ, 355 nm, irradiated volume 88 μL of the 800-μL sample): 72%
- photorelease of compound in the cuvette (55 mJ, 355 nm, whole 800-μL sample): 7.9%
- fold lower concentration of 1 than 3 required to produce the same concentration of NADP (excitation at 355 nm): approximately 400 fold
- final concentration of NADP produced (full laser energy 55 mJ, total of 800 ns excitation at 355 nm, initial concentration 51 μM): 4.1 µM
